# Measurements from the supplement of paper PMC6411743.
# ± gives the standard deviation of the averaged measurements. This is a selection; strong and weak results do not stand in their true shares.
# Experiments:
# Test in all cases: NP40-soluble protein abundance relative to vehicle (solubility fold change) (ratio); higher = more soluble protein in presence of ATP
# [1] = target: T1, H0Y2P2 and related entries (UniProt Q96IV0)
# T1 sequence (whole entry): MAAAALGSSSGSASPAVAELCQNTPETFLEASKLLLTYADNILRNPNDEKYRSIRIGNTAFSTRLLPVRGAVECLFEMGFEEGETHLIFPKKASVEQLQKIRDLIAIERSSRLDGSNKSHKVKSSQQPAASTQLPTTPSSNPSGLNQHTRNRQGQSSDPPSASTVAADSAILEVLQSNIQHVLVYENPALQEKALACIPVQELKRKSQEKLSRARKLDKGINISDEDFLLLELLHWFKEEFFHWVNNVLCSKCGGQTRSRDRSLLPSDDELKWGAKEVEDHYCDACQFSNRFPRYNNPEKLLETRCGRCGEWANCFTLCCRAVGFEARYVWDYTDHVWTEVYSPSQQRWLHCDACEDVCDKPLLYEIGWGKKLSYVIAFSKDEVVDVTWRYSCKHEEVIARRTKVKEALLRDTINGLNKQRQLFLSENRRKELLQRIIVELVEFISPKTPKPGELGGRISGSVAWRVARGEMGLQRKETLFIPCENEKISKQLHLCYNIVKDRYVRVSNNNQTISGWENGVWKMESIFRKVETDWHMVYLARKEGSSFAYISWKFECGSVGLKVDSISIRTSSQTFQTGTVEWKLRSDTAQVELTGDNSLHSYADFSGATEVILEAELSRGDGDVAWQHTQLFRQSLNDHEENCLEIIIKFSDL
# In short: (§1)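 Jurkat crude lysate prepared with a Dounce homogeniser was treated at eight concentrations spanning 0.1 to 10 mM, 10 min at room temperature then 3 min at 37 °C. Solubilisation with 0.8% NP40 and benzonase and ultracentrifugation preceded TMT labelling of the supernatant for LC-MS/MS. Fold change against the detergent-processed vehicle was determined per replicate from vsn-normalised intensities, across three independent experiments.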
# [2] = target: T2, H0Y6T6 and related entries (UniProt Q8IXM6)
# T2 sequence (whole entry): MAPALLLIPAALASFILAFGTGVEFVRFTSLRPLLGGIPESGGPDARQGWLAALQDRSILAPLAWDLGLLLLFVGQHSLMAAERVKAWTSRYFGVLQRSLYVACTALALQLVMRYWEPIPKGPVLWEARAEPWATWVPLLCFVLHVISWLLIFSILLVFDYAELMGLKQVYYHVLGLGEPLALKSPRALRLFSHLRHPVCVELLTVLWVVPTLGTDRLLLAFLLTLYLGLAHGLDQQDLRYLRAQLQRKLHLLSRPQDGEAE
# In short: as §1
# [3] = target: T3, H0Y714 and related entries (UniProt Q96G21)
# T3 sequence (whole entry): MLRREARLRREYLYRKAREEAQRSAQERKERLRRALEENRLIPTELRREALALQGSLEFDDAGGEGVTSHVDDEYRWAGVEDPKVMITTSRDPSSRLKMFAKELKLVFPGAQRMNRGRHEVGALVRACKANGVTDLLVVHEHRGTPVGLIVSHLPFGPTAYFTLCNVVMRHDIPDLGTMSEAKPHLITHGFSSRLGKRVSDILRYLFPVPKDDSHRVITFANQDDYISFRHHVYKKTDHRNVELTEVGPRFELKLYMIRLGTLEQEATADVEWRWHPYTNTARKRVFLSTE
# In short: as §1
# [4] = target: T4, H0Y7P7 and related entries (UniProt Q9UG56)
# T4 sequence (whole entry): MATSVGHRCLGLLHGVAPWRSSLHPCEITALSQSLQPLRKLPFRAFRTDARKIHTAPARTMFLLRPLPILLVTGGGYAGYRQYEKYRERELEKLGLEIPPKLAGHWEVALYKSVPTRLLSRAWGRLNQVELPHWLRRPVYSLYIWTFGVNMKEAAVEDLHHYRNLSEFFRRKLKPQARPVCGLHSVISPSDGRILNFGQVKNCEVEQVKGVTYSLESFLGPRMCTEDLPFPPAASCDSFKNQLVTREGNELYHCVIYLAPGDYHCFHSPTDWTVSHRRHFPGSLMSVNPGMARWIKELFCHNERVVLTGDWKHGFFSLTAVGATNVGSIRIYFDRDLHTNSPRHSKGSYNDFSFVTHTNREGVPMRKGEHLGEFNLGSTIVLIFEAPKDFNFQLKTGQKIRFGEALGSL
# In short: as §1
# [5] = target: T5, H0Y9I3 and related entries (UniProt Q9HAV4)
# T5 sequence (whole entry): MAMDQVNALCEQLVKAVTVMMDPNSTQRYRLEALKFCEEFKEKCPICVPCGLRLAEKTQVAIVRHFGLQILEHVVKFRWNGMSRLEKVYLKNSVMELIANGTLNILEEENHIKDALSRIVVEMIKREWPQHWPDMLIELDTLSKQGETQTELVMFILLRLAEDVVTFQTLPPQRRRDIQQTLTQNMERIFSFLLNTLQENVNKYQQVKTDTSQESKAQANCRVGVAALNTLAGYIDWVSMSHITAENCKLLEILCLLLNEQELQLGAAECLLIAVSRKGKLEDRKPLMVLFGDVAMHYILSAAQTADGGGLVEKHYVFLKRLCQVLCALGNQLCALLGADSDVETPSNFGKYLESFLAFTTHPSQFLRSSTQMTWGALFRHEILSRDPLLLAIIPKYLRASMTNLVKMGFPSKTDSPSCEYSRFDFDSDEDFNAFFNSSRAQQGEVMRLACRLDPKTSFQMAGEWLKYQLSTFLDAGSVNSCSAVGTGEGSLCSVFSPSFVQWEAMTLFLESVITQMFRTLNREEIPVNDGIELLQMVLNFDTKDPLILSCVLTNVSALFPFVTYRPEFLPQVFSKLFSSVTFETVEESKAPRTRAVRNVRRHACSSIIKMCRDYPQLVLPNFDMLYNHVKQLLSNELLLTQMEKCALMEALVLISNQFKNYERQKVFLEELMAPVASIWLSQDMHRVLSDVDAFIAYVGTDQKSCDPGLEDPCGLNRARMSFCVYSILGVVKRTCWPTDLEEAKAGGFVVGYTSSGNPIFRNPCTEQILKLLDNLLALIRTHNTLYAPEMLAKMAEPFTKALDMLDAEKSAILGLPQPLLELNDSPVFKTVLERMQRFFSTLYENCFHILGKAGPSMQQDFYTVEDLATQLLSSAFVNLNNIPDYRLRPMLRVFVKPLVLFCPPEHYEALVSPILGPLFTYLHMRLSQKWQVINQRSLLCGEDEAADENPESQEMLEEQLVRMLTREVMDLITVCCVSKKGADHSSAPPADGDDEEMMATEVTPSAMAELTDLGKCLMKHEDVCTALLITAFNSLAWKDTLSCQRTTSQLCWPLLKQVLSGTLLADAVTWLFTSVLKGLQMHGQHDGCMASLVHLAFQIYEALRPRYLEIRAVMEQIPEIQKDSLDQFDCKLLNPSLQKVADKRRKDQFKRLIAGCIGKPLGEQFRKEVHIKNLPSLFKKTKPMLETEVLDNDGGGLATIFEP
# In short: as §1
# [6] = target: T6, H0YBI6 and related entries (UniProt Q86VQ6)
# T6 sequence (whole entry): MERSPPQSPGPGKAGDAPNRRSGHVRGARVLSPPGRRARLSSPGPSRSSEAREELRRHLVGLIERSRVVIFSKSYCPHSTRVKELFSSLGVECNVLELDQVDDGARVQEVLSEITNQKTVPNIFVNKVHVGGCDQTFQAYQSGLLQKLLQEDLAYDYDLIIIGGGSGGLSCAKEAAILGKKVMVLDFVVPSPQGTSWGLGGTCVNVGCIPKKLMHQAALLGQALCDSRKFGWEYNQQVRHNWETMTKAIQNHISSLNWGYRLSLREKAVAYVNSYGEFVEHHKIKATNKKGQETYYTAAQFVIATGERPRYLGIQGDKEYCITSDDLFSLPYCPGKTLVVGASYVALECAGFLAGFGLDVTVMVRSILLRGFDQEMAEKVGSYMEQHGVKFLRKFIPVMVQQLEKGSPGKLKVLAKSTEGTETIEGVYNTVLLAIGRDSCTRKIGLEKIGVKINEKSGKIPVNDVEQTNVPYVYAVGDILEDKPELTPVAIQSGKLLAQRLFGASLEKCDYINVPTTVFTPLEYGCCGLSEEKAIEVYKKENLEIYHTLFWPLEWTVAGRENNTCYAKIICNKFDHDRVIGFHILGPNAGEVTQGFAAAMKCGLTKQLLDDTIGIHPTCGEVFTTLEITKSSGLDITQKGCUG
# In short: as §1
# [7] = target: T7, H0YMI4 and related entries (UniProt Q9Y6I4)
# T7 sequence (whole entry): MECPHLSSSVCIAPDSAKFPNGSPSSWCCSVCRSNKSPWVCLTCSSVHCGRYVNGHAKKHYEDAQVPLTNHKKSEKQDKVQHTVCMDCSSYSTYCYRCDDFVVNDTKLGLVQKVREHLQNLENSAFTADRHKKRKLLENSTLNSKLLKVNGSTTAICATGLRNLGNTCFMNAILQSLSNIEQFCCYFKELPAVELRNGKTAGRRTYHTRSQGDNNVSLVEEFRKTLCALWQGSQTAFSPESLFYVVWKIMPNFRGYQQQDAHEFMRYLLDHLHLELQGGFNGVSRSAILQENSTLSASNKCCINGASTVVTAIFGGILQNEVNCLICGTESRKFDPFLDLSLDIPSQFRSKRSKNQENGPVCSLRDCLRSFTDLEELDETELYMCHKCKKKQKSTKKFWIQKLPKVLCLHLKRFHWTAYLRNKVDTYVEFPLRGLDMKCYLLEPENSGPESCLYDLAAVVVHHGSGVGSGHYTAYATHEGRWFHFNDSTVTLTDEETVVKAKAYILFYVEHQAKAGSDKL
# In short: as §1
# [8] = target: T8, H0YN33 and related entries (UniProt Q9BW66)
# T8 sequence (whole entry): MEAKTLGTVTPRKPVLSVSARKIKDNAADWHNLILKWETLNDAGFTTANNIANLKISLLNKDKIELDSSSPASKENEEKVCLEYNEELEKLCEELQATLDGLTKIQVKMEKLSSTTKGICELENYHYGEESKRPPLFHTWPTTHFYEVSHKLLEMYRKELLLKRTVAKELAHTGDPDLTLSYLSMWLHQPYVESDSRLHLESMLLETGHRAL
# In short: as §1
smiles,measurement,setting,value
Nc1ncnc2c1ncn2[C@@H]1O[C@H](COP(=O)(O)OP(=O)(O)OP(=O)(O)O)[C@@H](O)[C@H]1O [adenosine triphosphate],NP40-soluble protein abundance,[1]; concentration: 1mM,0.956 ± 0.064
same,NP40-soluble protein abundance,[1]; concentration: 2mM,0.946 ± 0.04
same,NP40-soluble protein abundance,[1]; concentration: 4mM,0.942 ± 0.046
same,NP40-soluble protein abundance,[1]; concentration: 6mM,0.902 ± 0.039
same,NP40-soluble protein abundance,[1]; concentration: 8mM,0.937 ± 0.046
same,NP40-soluble protein abundance,[1]; concentration: 10mM,0.955 ± 0.029
same,NP40-soluble protein abundance,[2]; concentration: 1mM,0.99 ± 0.17
same,NP40-soluble protein abundance,[2]; concentration: 2mM,0.969 ± 0.08
same,NP40-soluble protein abundance,[2]; concentration: 4mM,0.966 ± 0.084
same,NP40-soluble protein abundance,[2]; concentration: 6mM,0.722 ± 0.078
same,NP40-soluble protein abundance,[2]; concentration: 8mM,0.957 ± 0.098
same,NP40-soluble protein abundance,[2]; concentration: 10mM,1.03 ± 0.13
same,NP40-soluble protein abundance,[3]; concentration: 1mM,1.01 ± 0.17
same,NP40-soluble protein abundance,[3]; concentration: 2mM,1.06 ± 0.15
same,NP40-soluble protein abundance,[3]; concentration: 4mM,1.09 ± 0.036
same,NP40-soluble protein abundance,[3]; concentration: 6mM,1.01 ± 0.29
same,NP40-soluble protein abundance,[3]; concentration: 8mM,1.12 ± 0.18
same,NP40-soluble protein abundance,[3]; concentration: 10mM,1.16 ± 0.16
same,NP40-soluble protein abundance,[4]; concentration: 1mM,0.975 ± 0.077
same,NP40-soluble protein abundance,[4]; concentration: 2mM,0.962 ± 0.041
same,NP40-soluble protein abundance,[4]; concentration: 4mM,0.998 ± 0.075
same,NP40-soluble protein abundance,[4]; concentration: 6mM,0.998 ± 0.049
same,NP40-soluble protein abundance,[4]; concentration: 8mM,1.02 ± 0.071
same,NP40-soluble protein abundance,[4]; concentration: 10mM,0.988 ± 0.046
same,NP40-soluble protein abundance,[5]; concentration: 1mM,0.977 ± 0.071
same,NP40-soluble protein abundance,[5]; concentration: 2mM,0.954 ± 0.055
same,NP40-soluble protein abundance,[5]; concentration: 4mM,0.961 ± 0.062
same,NP40-soluble protein abundance,[5]; concentration: 6mM,0.931 ± 0.11
same,NP40-soluble protein abundance,[5]; concentration: 8mM,0.983 ± 0.056
same,NP40-soluble protein abundance,[5]; concentration: 10mM,0.95 ± 0.064
same,NP40-soluble protein abundance,[6]; concentration: 1mM,0.995 ± 0.15
same,NP40-soluble protein abundance,[6]; concentration: 2mM,1 ± 0.065
same,NP40-soluble protein abundance,[6]; concentration: 4mM,0.97 ± 0.11
same,NP40-soluble protein abundance,[6]; concentration: 6mM,0.962 ± 0.13
same,NP40-soluble protein abundance,[6]; concentration: 8mM,1.01 ± 0.11
same,NP40-soluble protein abundance,[6]; concentration: 10mM,1 ± 0.075
same,NP40-soluble protein abundance,[7]; concentration: 1mM,0.977 ± 0.064
same,NP40-soluble protein abundance,[7]; concentration: 2mM,1.02 ± 0.034
same,NP40-soluble protein abundance,[7]; concentration: 4mM,1.03 ± 0.045
same,NP40-soluble protein abundance,[7]; concentration: 6mM,0.96 ± 0.075
same,NP40-soluble protein abundance,[7]; concentration: 8mM,0.985 ± 0.035
same,NP40-soluble protein abundance,[7]; concentration: 10mM,0.992 ± 0.044
same,NP40-soluble protein abundance,[8]; concentration: 1mM,1.34 ± 0.081
same,NP40-soluble protein abundance,[8]; concentration: 2mM,1.39 ± 0.026
same,NP40-soluble protein abundance,[8]; concentration: 4mM,1.41 ± 0.086
same,NP40-soluble protein abundance,[8]; concentration: 6mM,1.48 ± 0.092
same,NP40-soluble protein abundance,[8]; concentration: 8mM,1.54 ± 0.14
same,NP40-soluble protein abundance,[8]; concentration: 10mM,1.38 ± 0.1

# Quoted at random: 3 records from the list
smiles,measurement,setting,value
Nc1ncnc2c1ncn2[C@@H]1O[C@H](COP(=O)(O)OP(=O)(O)OP(=O)(O)O)[C@@H](O)[C@H]1O [adenosine triphosphate],NP40-soluble protein abundance,[5]; concentration: 1mM,0.977 ± 0.071
same,NP40-soluble protein abundance,[4]; concentration: 6mM,0.998 ± 0.049
same,NP40-soluble protein abundance,[3]; concentration: 2mM,1.06 ± 0.15
